Measurements: the supplement of paper PMC7666118
This is one part of the list.

Amino acid sequences for entries named in this document (tags omitted). A change or cut given only in a name is not applied to a line headed by its entry.
UniProt P12955: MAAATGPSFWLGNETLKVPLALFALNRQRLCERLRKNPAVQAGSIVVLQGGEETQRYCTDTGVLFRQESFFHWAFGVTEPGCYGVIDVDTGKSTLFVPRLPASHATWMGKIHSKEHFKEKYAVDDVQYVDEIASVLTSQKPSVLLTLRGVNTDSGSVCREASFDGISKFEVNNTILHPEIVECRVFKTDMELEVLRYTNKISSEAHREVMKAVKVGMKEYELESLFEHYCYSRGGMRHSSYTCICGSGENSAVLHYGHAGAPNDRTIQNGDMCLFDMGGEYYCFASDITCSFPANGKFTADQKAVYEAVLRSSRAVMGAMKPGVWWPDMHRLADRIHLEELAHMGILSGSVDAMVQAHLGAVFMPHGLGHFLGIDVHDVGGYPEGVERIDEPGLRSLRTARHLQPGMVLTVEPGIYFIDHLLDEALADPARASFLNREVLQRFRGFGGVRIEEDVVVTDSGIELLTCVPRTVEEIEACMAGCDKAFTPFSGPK
UniProt Q13438: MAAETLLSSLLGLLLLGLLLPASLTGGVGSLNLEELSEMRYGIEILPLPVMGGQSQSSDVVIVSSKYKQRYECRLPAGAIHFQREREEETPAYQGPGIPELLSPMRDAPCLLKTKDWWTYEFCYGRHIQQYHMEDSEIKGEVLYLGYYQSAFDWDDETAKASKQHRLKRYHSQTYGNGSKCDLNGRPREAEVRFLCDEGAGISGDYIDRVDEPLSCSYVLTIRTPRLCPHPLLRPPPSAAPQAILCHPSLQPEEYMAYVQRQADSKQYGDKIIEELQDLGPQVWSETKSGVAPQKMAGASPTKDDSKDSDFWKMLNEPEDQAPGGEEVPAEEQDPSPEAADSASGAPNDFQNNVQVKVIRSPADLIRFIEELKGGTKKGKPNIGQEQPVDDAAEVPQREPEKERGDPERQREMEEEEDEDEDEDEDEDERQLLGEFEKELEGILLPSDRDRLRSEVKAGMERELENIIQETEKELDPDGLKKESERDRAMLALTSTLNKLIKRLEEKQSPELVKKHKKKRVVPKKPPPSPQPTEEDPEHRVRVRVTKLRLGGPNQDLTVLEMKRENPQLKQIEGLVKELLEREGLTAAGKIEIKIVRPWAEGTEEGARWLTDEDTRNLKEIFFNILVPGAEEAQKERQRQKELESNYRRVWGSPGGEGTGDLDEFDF
UniProt Q9NTK5, whole entry, looked up: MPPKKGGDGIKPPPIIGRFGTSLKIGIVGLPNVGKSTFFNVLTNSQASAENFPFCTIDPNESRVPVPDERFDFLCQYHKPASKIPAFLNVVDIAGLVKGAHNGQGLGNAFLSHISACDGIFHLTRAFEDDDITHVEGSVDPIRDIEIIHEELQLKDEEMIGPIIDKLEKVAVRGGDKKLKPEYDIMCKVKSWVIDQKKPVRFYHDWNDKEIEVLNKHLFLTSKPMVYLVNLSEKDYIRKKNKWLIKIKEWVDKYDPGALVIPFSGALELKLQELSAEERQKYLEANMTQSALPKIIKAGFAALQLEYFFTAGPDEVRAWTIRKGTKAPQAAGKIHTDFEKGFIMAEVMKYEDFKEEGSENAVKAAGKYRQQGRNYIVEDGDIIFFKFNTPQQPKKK
UniProt Q9BUL8: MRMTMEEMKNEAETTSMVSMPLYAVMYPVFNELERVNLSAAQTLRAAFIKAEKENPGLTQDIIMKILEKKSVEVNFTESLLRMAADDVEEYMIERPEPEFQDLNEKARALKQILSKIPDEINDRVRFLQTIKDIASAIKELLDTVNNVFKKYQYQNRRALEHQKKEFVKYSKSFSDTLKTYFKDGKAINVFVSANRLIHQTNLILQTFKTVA
UniProt Q6P996: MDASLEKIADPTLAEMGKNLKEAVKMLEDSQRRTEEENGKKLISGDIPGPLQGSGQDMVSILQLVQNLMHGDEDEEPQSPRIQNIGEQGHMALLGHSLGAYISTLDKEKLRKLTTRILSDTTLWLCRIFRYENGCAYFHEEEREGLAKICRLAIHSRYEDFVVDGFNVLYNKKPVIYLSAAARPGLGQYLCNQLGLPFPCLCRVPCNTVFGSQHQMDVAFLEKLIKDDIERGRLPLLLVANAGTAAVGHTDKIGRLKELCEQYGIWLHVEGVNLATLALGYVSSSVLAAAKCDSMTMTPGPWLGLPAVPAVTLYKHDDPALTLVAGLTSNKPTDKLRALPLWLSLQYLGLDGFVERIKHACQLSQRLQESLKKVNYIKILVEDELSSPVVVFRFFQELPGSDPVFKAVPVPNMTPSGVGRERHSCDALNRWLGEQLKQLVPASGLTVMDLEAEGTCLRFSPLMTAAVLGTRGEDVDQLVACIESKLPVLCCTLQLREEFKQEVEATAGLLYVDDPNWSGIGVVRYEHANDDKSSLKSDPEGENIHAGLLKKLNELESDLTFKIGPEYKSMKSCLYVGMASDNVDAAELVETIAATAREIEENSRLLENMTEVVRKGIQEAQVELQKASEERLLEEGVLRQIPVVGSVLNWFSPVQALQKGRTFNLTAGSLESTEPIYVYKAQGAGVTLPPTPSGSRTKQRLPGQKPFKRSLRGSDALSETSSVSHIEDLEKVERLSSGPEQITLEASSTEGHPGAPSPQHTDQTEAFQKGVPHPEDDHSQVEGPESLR
UniProt Q96AQ6: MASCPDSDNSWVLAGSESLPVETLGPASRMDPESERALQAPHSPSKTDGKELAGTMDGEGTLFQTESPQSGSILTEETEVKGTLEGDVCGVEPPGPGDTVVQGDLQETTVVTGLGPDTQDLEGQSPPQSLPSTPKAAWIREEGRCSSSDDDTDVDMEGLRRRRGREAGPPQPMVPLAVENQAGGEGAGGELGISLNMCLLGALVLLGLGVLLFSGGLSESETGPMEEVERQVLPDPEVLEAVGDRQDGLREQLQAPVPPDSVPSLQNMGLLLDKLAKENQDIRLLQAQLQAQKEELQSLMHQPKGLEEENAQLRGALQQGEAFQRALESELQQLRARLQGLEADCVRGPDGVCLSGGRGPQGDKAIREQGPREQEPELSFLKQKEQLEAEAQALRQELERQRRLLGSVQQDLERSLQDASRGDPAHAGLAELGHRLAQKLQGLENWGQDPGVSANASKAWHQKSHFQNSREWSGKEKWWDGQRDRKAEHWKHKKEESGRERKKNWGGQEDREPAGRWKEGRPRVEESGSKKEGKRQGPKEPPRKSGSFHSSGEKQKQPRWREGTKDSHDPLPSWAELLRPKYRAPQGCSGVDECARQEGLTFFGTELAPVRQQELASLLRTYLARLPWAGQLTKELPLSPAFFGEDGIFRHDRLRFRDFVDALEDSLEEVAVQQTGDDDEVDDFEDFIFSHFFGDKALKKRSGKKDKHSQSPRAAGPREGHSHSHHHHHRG
UniProt P09874, whole entry: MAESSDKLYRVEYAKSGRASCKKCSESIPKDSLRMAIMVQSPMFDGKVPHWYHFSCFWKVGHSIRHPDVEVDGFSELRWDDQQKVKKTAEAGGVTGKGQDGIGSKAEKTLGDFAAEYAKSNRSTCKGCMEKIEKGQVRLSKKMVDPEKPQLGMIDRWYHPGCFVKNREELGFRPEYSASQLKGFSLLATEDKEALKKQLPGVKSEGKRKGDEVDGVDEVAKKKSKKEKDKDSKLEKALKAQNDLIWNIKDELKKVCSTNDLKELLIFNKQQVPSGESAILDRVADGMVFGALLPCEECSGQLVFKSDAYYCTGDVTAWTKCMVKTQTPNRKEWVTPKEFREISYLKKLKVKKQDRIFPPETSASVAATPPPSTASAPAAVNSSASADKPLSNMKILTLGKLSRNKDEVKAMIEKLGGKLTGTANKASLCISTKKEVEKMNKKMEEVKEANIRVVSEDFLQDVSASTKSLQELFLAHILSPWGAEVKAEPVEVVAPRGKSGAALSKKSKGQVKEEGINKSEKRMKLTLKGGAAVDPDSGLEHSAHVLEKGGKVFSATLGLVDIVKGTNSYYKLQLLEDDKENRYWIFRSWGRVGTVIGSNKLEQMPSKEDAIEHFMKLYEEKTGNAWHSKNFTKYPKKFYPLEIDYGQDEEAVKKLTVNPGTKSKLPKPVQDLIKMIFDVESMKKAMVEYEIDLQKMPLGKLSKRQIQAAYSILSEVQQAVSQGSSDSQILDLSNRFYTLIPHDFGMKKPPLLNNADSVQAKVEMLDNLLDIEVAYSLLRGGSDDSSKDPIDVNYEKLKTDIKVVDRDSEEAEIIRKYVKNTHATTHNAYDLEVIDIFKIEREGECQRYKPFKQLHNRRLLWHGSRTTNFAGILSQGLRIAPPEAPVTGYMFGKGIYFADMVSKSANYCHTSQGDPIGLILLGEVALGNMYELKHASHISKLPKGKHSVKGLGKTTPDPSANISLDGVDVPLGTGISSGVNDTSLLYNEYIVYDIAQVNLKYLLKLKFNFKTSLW
UniProt P53350, whole entry: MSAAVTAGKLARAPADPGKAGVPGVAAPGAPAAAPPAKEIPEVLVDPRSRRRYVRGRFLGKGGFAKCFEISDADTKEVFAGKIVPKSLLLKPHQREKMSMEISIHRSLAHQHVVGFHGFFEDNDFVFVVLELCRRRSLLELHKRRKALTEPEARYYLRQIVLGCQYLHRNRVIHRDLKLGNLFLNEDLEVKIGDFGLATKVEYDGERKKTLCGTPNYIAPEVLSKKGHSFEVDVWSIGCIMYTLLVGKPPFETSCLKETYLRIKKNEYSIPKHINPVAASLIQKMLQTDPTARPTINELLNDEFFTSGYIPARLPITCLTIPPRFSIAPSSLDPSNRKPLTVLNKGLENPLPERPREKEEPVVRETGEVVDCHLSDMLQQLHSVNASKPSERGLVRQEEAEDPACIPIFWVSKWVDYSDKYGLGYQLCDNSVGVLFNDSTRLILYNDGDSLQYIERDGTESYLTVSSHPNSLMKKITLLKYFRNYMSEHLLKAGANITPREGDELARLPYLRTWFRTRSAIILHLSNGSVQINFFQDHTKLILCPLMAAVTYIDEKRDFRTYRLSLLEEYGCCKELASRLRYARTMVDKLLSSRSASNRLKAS
UniProt Q86U42: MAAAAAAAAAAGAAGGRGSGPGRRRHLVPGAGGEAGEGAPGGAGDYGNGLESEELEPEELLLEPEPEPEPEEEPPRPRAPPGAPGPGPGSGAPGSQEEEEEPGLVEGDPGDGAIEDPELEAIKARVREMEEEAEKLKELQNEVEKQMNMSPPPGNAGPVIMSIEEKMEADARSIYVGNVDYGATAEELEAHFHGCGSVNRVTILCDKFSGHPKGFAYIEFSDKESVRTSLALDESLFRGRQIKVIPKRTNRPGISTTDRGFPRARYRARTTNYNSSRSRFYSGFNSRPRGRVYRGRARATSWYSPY

Compound: COc1ccc(Cn2ccc3cc(C)c(C(=O)NO)cc32)cc1
Test: dose-dependent thermal stabilisation call (2D-TPP, DLPTP, 10% FDR) (binary (1 = stabilised)); higher = stabilised by the compound
Conditions: system: HL-60 intact cells; concentration range 0.04-10 µM
Procedure: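 2D thermal proteome profiling in intact HL-60 cells treated with BRD-3811 (0, 0.04, 0.29, 2, 10 uM) for 90 min at 37 C, then heated 3 min at one of 12 temperatures (42-63.9 C). Soluble protein was quantified by TMT10 MS. The value is the DLPTP call of the paper: dose-dependent thermal stabilisation over all temperatures at 10% FDR (F-test of a dose-response against a flat model); one experiment, one call per tested protein.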

| Target | dose-dependent thermal stabilisation call |
| --- | --- |
| PEPD (UniProt P12955) | inactive: 0 |
| OS9 (UniProt Q13438) | inactive: 0 |
| OLA1 (UniProt Q9NTK5) | inactive: 0 |
| PDCD10 (UniProt Q9BUL8) | inactive: 0 |
| PDXDC1 (UniProt Q6P996) | inactive: 0 |
| PBXIP1 (UniProt Q96AQ6) | inactive: 0 |
| PARP1 (UniProt P09874) | inactive: 0 |
| PLK1 (UniProt P53350) | inactive: 0 |
| PABPN1 (UniProt Q86U42) | inactive: 0 |
